# Assay results: PubChem BioAssay AID1508600 (Functional Genomics Laboratory (NCATS/FGL), 2020)
# About 3,700 (7%) of roughly 53,000 sequences were called active.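 Rule for the calls: active = gene knockdowns whose robust z-score for IL-1 alpha signal is at least 2 or at most -2, so actives lie on both sides; inactive = the rest.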 Some of the results follow.
# Experiment: Components of the Cytosolic LPS Sensing Pathway: Gene Identification via Genome-wide siRNA Screen;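 note: robust z of the log signal after scaling to non-targeting control siRNA wells of the plate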
# Details: RAW264.7 macrophages, IL-1a HTRF, actives lie on both sides, screened at 100 nM (by protocol), cells primed 5 h with Pam3CSK4 first
# How it was run: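 Using IL-1a HTRF as read-out, the screen measured release from RAW264.7 cells after 48h siRNA knockdown (100 nM), 5 h Pam3CSK4 priming and 24 h cytosolic LipidA. Values were expressed relative to negative-control wells as robust z-scores.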
row,Sequence,z-score
1,CAUUGUCAUUCUAGUUGCATT against Olfr1251,inactive: 0.64
2,GGAAGUGGCUUUUUAUCAGTT against Arhgap6,active: 2.05
3,GGAUCUGCACACCUAUGGGTT against Prok2,inactive: -0.791
4,GUAGUUAGGAACUCUUGCUTT against Thnsl2,inactive: -0.086
5,GGUGAUCCCGAAUGAUGAATT against Cpa2,inactive: -0.718
6,CCAUAGGAAUGCAUUUGAGTT against Arhgef7,inactive: -0.741
7,GGUGAACAUCACUUAUCCCTT against Plekhh1,inactive: 0.0443
8,GGAGCUGCUGUUAAUUCCATT against Col5a3,inactive: 1.3
9,GGAACAACUUGAUACCUCUTT against Trim44,inactive: -0.89
10,GGCUAUGUUGCACUUUCACTT against Vmn1r229,inactive: 0.703
11,CCUUUGUCCUUUUGUUGUGTT against Defb15,inactive: 0.867
12,CCUUGAAGUAUCAGGUGGATT against Sytl3,inactive: 0.561
13,GGAGAUUGACCUGGUCAACTT against Cav1,inactive: 1.44
14,GGGACAAUGCUGUCAUUGATT against Noxa1,inactive: -0.222
15,GGAGACGAGUCACAUCUCATT against Cables2,inactive: -0.287
16,GCCCGUUCCACUUUUGGAGTT against Nedd1,active: 2.2
17,GGGUCAGGAGGAAAAAAAATT against Reps1,inactive: -1.56
18,CCCUGUAAGGACCAAUAAATT against Dact1,inactive: -0.000857
19,GGAAAGGACUGGAAGAAUUTT against Mrpl47,inactive: -0.693
20,CCUAGUUGAUACCUGUGGUTT against Cd302,inactive: -1.34
21,GGAAAACAAGAAAGAUGAATT against Snupn,inactive: -1.05
22,GGACCAGUUGUAAAUGUUATT against Hoxd9,inactive: -0.578
23,GGUUUUCAGUACAUCCUGGTT against Cryba4,inactive: 0.183

row,Sequence,z-score
1,GGUGGCAAUGACAACUACUTT against Rnase4,inactive: -0.495
2,GGACAAAAUUGAACACAAGTT against Pogz,active: 2.86
3,CGAUCAAAGAACCUGAAAGTT against Sidt1,inactive: -1.76
4,GGUUAUGAGGCUUAAUAAATT against Atxn7l1,inactive: 0.965
5,GGAAGAAUUGGGUGUAGUGTT against L1cam,inactive: -0.426
6,GGUGGCUCUGGUUAAACUCTT against Atmin,inactive: 1.18
7,GGAAAUCGGCAAUCUGAAGTT against Lrrc1,inactive: 0.523
8,GGACAGGUUCGAGUCAACATT against Acan,inactive: 0.435
9,CCAUUUAUAUCAGGCAUCATT against Lrit1,inactive: -0.647
10,GGAAAAGUAUUGGUAGACGTT against Steap4,inactive: -1.73
11,GUCCCACUGUCCAGUUACATT against Gm9946,inactive: -0.565
12,CCUUAGACCCAAUAACUUUTT against Nrxn1,inactive: 0.595
13,GCCCUCCUGUGAGUUUCUCTT against Mgme1,inactive: -0.564
14,CCUUAUCUUAAUGAUCUCCTT against Mc5r,inactive: -0.54
15,GGGAAUGCAAUGGUUUGUGTT against Ocm,inactive: 0.0293
16,GGGAUUAGAGACUGUCAUUTT against Nudt9,inactive: -0.354
17,CCCUGGUUCUAUGACUUAATT against Cers2,inactive: -1.12
18,GCACAAAAAAGUGAUAUUGTT against Hdlbp,inactive: 0.41
19,CGGUCAUUAAUGAAGCCUGTT against Pamr1,active: 2.65
20,GCAACUGGACAUUUAACAATT against Epgn,inactive: 1.38
21,CCUCAAGGCUCAUAAAACATT against Zfp598,inactive: -1.56
22,GGCUUUGUGGACUUAAUUATT against Cyb5r2,inactive: -1
23,GGAUUGCUUCAAUGAGGAATT against Scgb2b27,inactive: 0.135

row,Sequence,z-score
1,GCAAGCUCAAAGCUUACGATT against Kcnv2,inactive: -0.0806
2,GGUCCUGUGCUCUACUUUGTT against Gng10,inactive: 1.56
3,GGACUUGAUCAACUCUAUCTT against Supt3,inactive: 0.524
4,CGUGACAAAUUGAAGGAAATT against Itsn2,inactive: -0.419
5,GGUGUACCAGAAUGAGAAGTT against Akr1b3,inactive: 0.611
6,GCCUCUUUGGGUUCGUUUCTT against Opn3,inactive: 0.797
7,GGACAACCACUUUAAGCUUTT against Tars2,inactive: 1.04
8,GCAUCUCGGAAGAUCCUGUTT against Vip,inactive: -0.251
9,UCCAGACUGUACCAUUCCATT against Mesp1,inactive: -0.147
10,GCUAAAGGAGUAUAAUAGUTT against Kirrel3os,inactive: 0.718
11,GCCAGUAUUGUGCAACAAGTT against Klrk1,inactive: -1.36
12,GGACCAAUUGGAUCCUUUUTT against Olfr1340,inactive: -1.6
13,GCACUUACUCUUCAACGGGTT against Yae1d1,inactive: 1.87
14,GGACCAGUUCUGGUUCAGATT against Fmn2,inactive: 0.992
15,GCUAGAAAAAAAUCAGUUGTT against Eif2a,inactive: 0.6
16,GGAAUUUAGUGUGCGGUCGTT against Oxa1l,inactive: 0.0947
17,CCACACCUAUCUUCUACGUTT against Mars2,inactive: -0.306
18,GAUUACCGCACUUCAGAUCTT against Cep44,inactive: 0.347
19,CGCUGAAAGUGAACGUAGGTT against Kcnv2,inactive: -1.14
20,GCCUUAACUAUAGUCCAGATT against Scn7a,inactive: -0.928
21,GCCUCACUUUGACUGUCGCTT against Tpgs2,inactive: -0.289
22,UGUUACAACUCUUUGUGGUTT against Olfr1193,inactive: -1.15
23,GCCAAGCUUAAGAACUUAATT against Oas3,inactive: 1.51

# An excerpt of these results, with bars between the fields.
row | Sequence | z-score
1 | CAUUGUCAUUCUAGUUGCATT against Olfr1251 | inactive: 0.64
2 | GGAAGUGGCUUUUUAUCAGTT against Arhgap6 | active: 2.05
3 | GGAUCUGCACACCUAUGGGTT against Prok2 | inactive: -0.791
4 | GUAGUUAGGAACUCUUGCUTT against Thnsl2 | inactive: -0.086
5 | GGUGAUCCCGAAUGAUGAATT against Cpa2 | inactive: -0.718
6 | CCAUAGGAAUGCAUUUGAGTT against Arhgef7 | inactive: -0.741
